Primary screen of a compound library

Chains of the proteins cited; added tags and fusions are not shown.
UniProt E9BF75, entry or part of it: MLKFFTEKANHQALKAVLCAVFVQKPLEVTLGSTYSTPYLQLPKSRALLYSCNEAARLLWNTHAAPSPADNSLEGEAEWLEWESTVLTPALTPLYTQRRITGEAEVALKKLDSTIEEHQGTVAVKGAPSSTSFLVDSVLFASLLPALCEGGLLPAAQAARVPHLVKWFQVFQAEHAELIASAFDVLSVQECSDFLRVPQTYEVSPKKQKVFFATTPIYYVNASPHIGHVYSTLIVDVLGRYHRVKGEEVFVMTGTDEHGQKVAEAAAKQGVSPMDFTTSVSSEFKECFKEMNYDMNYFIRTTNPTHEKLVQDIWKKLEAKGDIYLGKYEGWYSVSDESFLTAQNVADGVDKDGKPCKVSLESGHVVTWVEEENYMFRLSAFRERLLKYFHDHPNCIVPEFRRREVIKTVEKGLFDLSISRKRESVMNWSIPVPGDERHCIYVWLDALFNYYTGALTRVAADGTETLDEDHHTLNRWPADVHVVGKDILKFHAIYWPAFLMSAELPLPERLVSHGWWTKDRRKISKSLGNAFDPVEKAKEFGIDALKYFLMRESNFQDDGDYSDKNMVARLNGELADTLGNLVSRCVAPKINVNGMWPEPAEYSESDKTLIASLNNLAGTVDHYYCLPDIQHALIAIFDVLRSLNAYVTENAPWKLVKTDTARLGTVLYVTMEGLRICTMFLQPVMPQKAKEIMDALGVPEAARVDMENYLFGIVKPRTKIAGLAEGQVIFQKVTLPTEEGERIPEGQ

From ChEMBL document CHEMBL3988442, “University of Dundee, Small-Polar-MMV Screening Library” (2021).

Results are percentages, as filed.
How 0% and 100% were set is not recorded. Most values in the screen are low, and negative values occur.
The compounds are a random part of those screened.

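Methionyl-tRNA synthetase (putative), Leishmania donovani (UniProt E9BF75). Primary screen of methionyl-tRNA synthetase; the read-out is not stated. The test concentration is not given. The values are filed as inhibition. Size under these conditions: about 68,000 compounds, about 24 of them at 50% or above in at least one test.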

structure,inhibition
CN(C)C(=O)N1C[C@@H]2CC[C@H](C1)N(C(=O)CCCn1cncn1)C2,17.75%
CC(C)(C)C(=O)N1CCC(COCc2ccccc2)C1 (centres undefined),9.61%
CCc1nnc(NC(=O)c2ccc(C3CCCN3CC(C)C)s2)s1 (centres undefined),0.8021%
CCOC1CCCN(C(=O)c2sccc2-n2cnnn2)C1 (centres undefined),14.11%
CCn1nc(C)cc1C(=O)N1CCCN(CCCc2ccccc2)CC1,21.28%
CCC(C(=O)NC1CCCCC1)n1cccc(OC)c1=O (centres undefined),9.946%
CCOC(=O)CC(C)NC(=O)c1cn(Cc2ccccc2F)nn1 (centres undefined),1.056%
CC(C)(C)N1CC(C(=O)NCc2noc(Cc3ccccc3)n2)CC1=O (centres undefined),6.863%
CC(C)c1ncncc1C(=O)N1CCN(Cc2ccccn2)CC1,12.57%
CCc1nnc(CNC(=O)CCC2CCCCN2C)s1 (centres undefined),6.497%
CCS(=O)(=O)CC(C)NC(=O)N(C)Cc1cc(Cl)cn1C (centres undefined),0.3546%
O=C(Cc1cccs1)N1CCC2(CCCN(CC3CCOCC3)C2)C1 (centres undefined),13.4%
C[S+]([O-])CCCNC(=O)c1cc(Br)c2c(c1)OCCO2 (centres undefined),5.854%
Cn1c(C(=O)N2CC[C@@]3(O)CCCC[C@H]3C2)cc2ccccc21,16.67%
CCNc1cc2c(nn1)CCN(C(=O)c1ccc(-n3cnnc3)cc1)C2,13.66%
Cc1nccn1C1CCCN(C(=O)COCC(F)(F)F)C1 (centres undefined),3.067%
Cc1ccc2c(c1)OC(C)CN2C(=O)CCc1cccnc1 (centres undefined),5.385%
Cc1ccc([C@H]2CN(C(=O)C3CCC3)C[C@@H]2N)o1,16.97%
CNC(=O)CCOC(=O)c1cccc(-n2ccc(C(F)(F)F)n2)c1,13.94%
COc1ccc2c(c1)C1(CCN(Cc3nccs3)CC1)N(C)CC2,6.849%
CC1CN(C(=O)Nc2cc(C(F)(F)F)c[nH]c2=O)CC(C)(C)O1 (centres undefined),22.64%
O=C(O)c1cc(-c2ccncc2F)cc(S(=O)(=O)N2CCCCCC2)c1,17.43%
CC(NC(=O)c1ccnc(C2CC2)n1)C1(N2CCOCC2)CCCC1 (centres undefined),12.66%
O=C1CCN(C(=O)CCc2ccc(Cl)cc2Cl)CCN1,10.03%
CC(C)OC[C@H]1CCC[C@]12CN(C(=O)C1CCOCC1)CCO2,8.798%
COc1ccc(C2CCCN2Cc2cnn(C)c2)cc1 (centres undefined),10.45%
O=C(c1ccnnc1)N1CC[C@H]2[C@H]1CCN2S(=O)(=O)C1CC1,7.534%
CC(C)COC(=O)N1CCC2(CCNC2)C1 (centres undefined),10%
COCCN1C[C@@H]2CN(c3ncccn3)C[C@@H]2C1=O,10.48%
COc1ccc(CNC(Cn2cncn2)c2ccccc2)cc1C (centres undefined),-1.489%
O=C(NCc1ccccc1)N1CCn2c(Cn3cccn3)cnc2C1,11.11%
O=C(O)Cn1ccc(=O)c2cc(F)ccc21,11.33%
CCc1c(C)nc2ccccc2c1N1CCC(NC(C)=O)CC1,15.24%
CN(C)c1ccc(C(=O)N2CCCC2c2cnn(C)c2)nn1 (centres undefined),14.75%
Cc1noc(C)c1C(=O)N1CCCC1c1c(C)nn(C)c1C (centres undefined),23.38%
Cc1[nH]c2ccc(Cl)cc2c1CCNc1ncnc2c1CCNC2,24.25%
Cc1cccc(OCCC(=O)N(C)CCNS(C)(=O)=O)c1C,18.31%
O=C(NCc1cc(F)cc(Br)c1)C1(O)CCSCC1,12.14%
CCN(CC)C(=O)[C@@H]1C[C@@H](N)CN1c1nc(N(C)C)nc(C)c1C,17.13%
COCCCN1CC2(CCN(Cc3ncc[nH]3)CC2)CC1=O,7.246%
C[C@H]1C(=O)NC[C@H]2CN(CCc3ccccc3)C[C@H]21,9.936%
Fc1ccc(OCc2noc(CN3CCc4cncnc4C3)n2)cc1,28.57%
CC(=O)N1CCN([C@@H]2CCC[C@@H](NC(=O)c3cccnc3)[C@H]2O)CC1,7.345%
Cc1cnn(CC2CCN(CC(O)c3ccccc3F)CC2)c1 (centres undefined),13.09%
O=C(NCCOCCO)c1cccnc1Oc1ccc(Cl)cc1,0.8333%
CCOc1ccc(NC(C)=O)cc1S(=O)(=O)Nc1cc(C)on1,8.009%

For reference, 5 entries once more:

{"structure": "CCOC(=O)CC(C)NC(=O)c1cn(Cc2ccccc2F)nn1", "stereo": "centres undefined", "inhibition": 1.056}
{"structure": "Cc1ccc([C@H]2CN(C(=O)C3CCC3)C[C@@H]2N)o1", "inhibition": 16.97}
{"structure": "CC(C)COC(=O)N1CCC2(CCNC2)C1", "stereo": "centres undefined", "inhibition": 10}
{"structure": "CC(C)c1ncncc1C(=O)N1CCN(Cc2ccccn2)CC1", "inhibition": 12.57}
{"structure": "Cc1[nH]c2ccc(Cl)cc2c1CCNc1ncnc2c1CCNC2", "inhibition": 24.25}